Results deposited as PubChem BioAssay AID686938 (Drosophila RNAi Screening Center, 2013)

- Purpose: 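Fly genes required for calcium entry once internal stores are emptied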 (primary screen)
- Cells: Drosophila S2R+ cells
- Reagents: long dsRNA against Drosophila genes, about 0.25 µg dsRNA per well, roughly 10,000 cells
- Duration: 5 days of knock-down before the calcium assay
- Conditions: thapsigargin (SERCA pump blocker) to empty calcium stores; entry signal taken 4 min after adding it
- Measurement: 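Duplicate raw fluo-4 intensities per well from a plate reader, at rest and four minutes after thapsigargin emptied calcium stores; entry-to-rest ratio filled for only some wells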
- Direction: calcium entry signal: higher = stronger calcium signal after store depletion; resting calcium signal: higher = higher resting calcium signal
- Hit rule: 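Called when the plate z-score of the entry-to-rest ratio, mean of duplicates, falls below −3; wells with low overall dye signal (Fmax z below −2) or more than five off-targets excluded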
- Calls: active = strongly reduced calcium entry; inactive = no strong reduction
The deposit covers about 23,000 reagents; this is a random part of those with a known target gene and a result. Over the whole deposit, 75 (0.33%) were called active. 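Raw plate signals without normalisation; calls rest on plate z-scores that were not deposited; ratio present for only 364 wells.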 Not stated in the record: the dose of the treatment.

no.	predicted target	dsRNA	calcium entry signal, replicate 1 (fluorescence units)	calcium entry signal, replicate 2 (fluorescence units)	resting calcium signal, replicate 1 (fluorescence units)	resting calcium signal, replicate 2 (fluorescence units)	Call
1	CG15740 (GeneID 32139)	DRSC19706	3.17e7	2.59e7	2.04e7	1.51e7	inactive
2	CG15740 (GeneID 32139)	DRSC23079	5.80e7	2.85e7	2.97e7	1.27e7	inactive
3	ND-B16.6 (GeneID 31578)	DRSC18306	2.21e7	2.65e7	1.03e7	1.30e7	inactive
4	ND-B16.6 (GeneID 31578)	DRSC22600	3.36e7	3.24e7	2.04e7	1.60e7	inactive
5	Tango5 (GeneID 326232)	DRSC18023	4.39e7	4.03e7	1.95e7	1.92e7	inactive
6	CG5339 (GeneID 37794)	DRSC04496	3.18e7		1.59e7		inactive
7	CG13332 (GeneID 36504)	DRSC06367	3.68e7	3.95e7	1.86e7	1.87e7	inactive
8	Nmda1 (GeneID 36419)	DRSC07479	4.34e7	4.61e7	1.80e7	1.96e7	inactive
9	Hou (GeneID 32852)	DRSC20001	3.87e7	3.70e7	1.66e7	1.59e7	inactive
10	Hou (GeneID 32852)	DRSC22347	3.21e7	5.00e7	1.56e7	2.45e7	inactive
11	CG7341 (GeneID 40004)	DRSC10818	3.92e7	5.48e7	1.85e7	3.66e7	inactive
12	CG17764 (GeneID 31440)	DRSC18135	2.26e7	3.98e7	1.57e7	1.80e7	inactive
13	CG17764 (GeneID 31440)	DRSC23055	4.18e7	3.13e7	2.46e7	1.40e7	inactive
14	boca (GeneID 48986)	DRSC06408	4.85e7	4.22e7	2.30e7	1.97e7	inactive
15	CG6678 (GeneID 42581)	DRSC16092	2.21e7	2.23e7	9.77e6	1.09e7	inactive
16	Elp5 (GeneID 38287)	DRSC08547	2.87e7	4.53e7	1.59e7	2.03e7	inactive
17	Spn43Ad (GeneID 35639)	DRSC06770	3.08e7	4.33e7	1.50e7	1.82e7	inactive
18	Cht6 (GeneID 31935)	DRSC18001	3.95e7	5.11e7	1.87e7	2.41e7	inactive
19	Cht6 (GeneID 31935)	DRSC18002	3.78e7	5.96e7	2.01e7	3.36e7	inactive
20	Cht6 (GeneID 31935)	DRSC18253	3.90e7	5.53e7	1.88e7	2.58e7	inactive
21	Cht6 (GeneID 31935)	DRSC23211	4.71e7	4.18e7	2.39e7	2.10e7	inactive
22	CG9581 (GeneID 33017)	DRSC20695	4.06e7	4.78e7	1.98e7	2.04e7	inactive
23	CG9581 (GeneID 33017)	DRSC22247	2.15e7	4.83e7	1.15e7	2.10e7	inactive
24	CG31872 (GeneID 34458)	DRSC02568	3.34e7	4.16e7	2.07e7	1.95e7	inactive
25	CG31872 (GeneID 34458)	DRSC02572	3.66e7	4.33e7	1.88e7	1.88e7	inactive
26	CG14491 (GeneID 37046)	DRSC06462	3.89e7	3.03e7	1.70e7	1.57e7	inactive
27	CG3040 (GeneID 31642)	DRSC22486	4.06e7	3.32e7	2.16e7	1.52e7	inactive
28	CG14853 (GeneID 41771)	DRSC14977	3.07e7	4.32e7	1.59e7	2.15e7	inactive
29	CG14853 (GeneID 41771)	DRSC21528	4.78e7	3.27e7	2.61e7	1.63e7	inactive
30	CG10466 (GeneID 35268)	DRSC02060	3.25e7	4.25e7	1.73e7	1.81e7	inactive
31	CG11975 (GeneID 41074)	DRSC14452	4.25e7	4.10e7	1.76e7	1.90e7	inactive
32	galla-2 (GeneID 39221)	DRSC10936	2.92e7	3.39e7	1.49e7	1.64e7	inactive
33	galla-2 (GeneID 39221)	DRSC21949	3.52e7	5.76e7	1.62e7	2.97e7	inactive
34	CG12253 (GeneID 47730)	DRSC02153	4.46e7		1.98e7		inactive

8 successive entries already listed:
no.	predicted target	dsRNA	calcium entry signal, replicate 1 (fluorescence units)	calcium entry signal, replicate 2 (fluorescence units)	resting calcium signal, replicate 1 (fluorescence units)	resting calcium signal, replicate 2 (fluorescence units)	Call
23	CG9581 (GeneID 33017)	DRSC22247	2.15e7	4.83e7	1.15e7	2.10e7	inactive
24	CG31872 (GeneID 34458)	DRSC02568	3.34e7	4.16e7	2.07e7	1.95e7	inactive
25	CG31872 (GeneID 34458)	DRSC02572	3.66e7	4.33e7	1.88e7	1.88e7	inactive
26	CG14491 (GeneID 37046)	DRSC06462	3.89e7	3.03e7	1.70e7	1.57e7	inactive
27	CG3040 (GeneID 31642)	DRSC22486	4.06e7	3.32e7	2.16e7	1.52e7	inactive
28	CG14853 (GeneID 41771)	DRSC14977	3.07e7	4.32e7	1.59e7	2.15e7	inactive
29	CG14853 (GeneID 41771)	DRSC21528	4.78e7	3.27e7	2.61e7	1.63e7	inactive
30	CG10466 (GeneID 35268)	DRSC02060	3.25e7	4.25e7	1.73e7	1.81e7	inactive

Further reagents:
no.	predicted target	dsRNA	calcium entry signal, replicate 1 (fluorescence units)	calcium entry signal, replicate 2 (fluorescence units)	resting calcium signal, replicate 1 (fluorescence units)	resting calcium signal, replicate 2 (fluorescence units)	Call
35	Obp19d (GeneID 33040)	DRSC20569	4.88e7	4.40e7	2.34e7	1.88e7	inactive
36	CG33307 (GeneID 2768914)	DRSC01349	4.16e7	4.51e7	1.98e7	1.87e7	inactive
37	Acbp5 (GeneID 39005)	DRSC10548	3.18e7	4.36e7	1.49e7	1.81e7	inactive
38	CG9630 (GeneID 40974)	DRSC16527	2.40e7	2.77e7	1.09e7	1.40e7	inactive
39	lky (GeneID 33006)	DRSC20682	4.75e7	5.17e7	2.36e7	2.28e7	inactive
40	Cdep (GeneID 40608)	DRSC12028	3.63e7	3.10e7	1.75e7	1.56e7	inactive
41	Cdep (GeneID 40608)	DRSC12220	2.71e7	2.58e7	1.60e7	1.07e7	inactive
42	Cdep (GeneID 40608)	DRSC12291	3.21e7	6.03e7	1.61e7	2.31e7	inactive
43	DIP-kappa (GeneID 318958)	DRSC01336	3.94e7	4.01e7	2.01e7	1.89e7	inactive
44	DIP-kappa (GeneID 318958)	DRSC01337	4.02e7	4.33e7	1.85e7	1.88e7	inactive
45	CG4338 (GeneID 41849)	DRSC15564	3.85e7	5.11e7	1.67e7	2.25e7	inactive
46	Marf (GeneID 31581)	DRSC18329	3.19e7	3.62e7	1.56e7	1.75e7	inactive
47	wcd (GeneID 36831)	DRSC07051	2.83e7	2.88e7	1.52e7	1.68e7	inactive
48	CG15395 (GeneID 33447)	DRSC00409	3.30e7	3.45e7	1.54e7	1.59e7	inactive
49	nom (GeneID 41038)	DRSC16389	5.20e7	3.63e7	2.35e7	1.69e7	inactive
50	Ykt6 (GeneID 31706)	DRSC17970	3.30e7	3.45e7	2.00e7	1.99e7	inactive
51	Cat (GeneID 40048)	DRSC11110	2.33e7	5.13e7	1.37e7	2.19e7	inactive
52	CG42700 (GeneID 36330)	DRSC06292	1.38e7	3.04e7	1.22e7	1.44e7	inactive
53	CG42700 (GeneID 36330)	DRSC06293	1.46e7	4.13e7	1.31e7	1.84e7	inactive
54	CG42700 (GeneID 36330)	DRSC23109	3.98e7	3.79e7	1.73e7	1.70e7	inactive
55	Irk2 (GeneID 42770)	DRSC15569	5.74e7	4.77e7	2.60e7	2.06e7	inactive
56	CG32726 (GeneID 318175)	DRSC17521	2.78e7	4.00e7	1.35e7	1.72e7	inactive
57	sNPF-R (GeneID 40195)	DRSC10836	3.07e7	5.34e7	1.50e7	2.14e7	inactive
58	NUCB1 (GeneID 39978)	DRSC22137	2.71e7	3.72e7	1.32e7	1.68e7	inactive
